The values that follow come from publication PMC4779111, “A Human Renal Proximal Tubule Cell Line with Stable Organic Anion Transporter 1 and 3 Expression Predictive for Antiviral-Induced Toxicity” (The AAPS Journal, 2016).

Assay [1] addresses T1, OAT3 (Homo sapiens, UniProt Q8TCC7).
T1 sequence (Q8TCC7 1-542): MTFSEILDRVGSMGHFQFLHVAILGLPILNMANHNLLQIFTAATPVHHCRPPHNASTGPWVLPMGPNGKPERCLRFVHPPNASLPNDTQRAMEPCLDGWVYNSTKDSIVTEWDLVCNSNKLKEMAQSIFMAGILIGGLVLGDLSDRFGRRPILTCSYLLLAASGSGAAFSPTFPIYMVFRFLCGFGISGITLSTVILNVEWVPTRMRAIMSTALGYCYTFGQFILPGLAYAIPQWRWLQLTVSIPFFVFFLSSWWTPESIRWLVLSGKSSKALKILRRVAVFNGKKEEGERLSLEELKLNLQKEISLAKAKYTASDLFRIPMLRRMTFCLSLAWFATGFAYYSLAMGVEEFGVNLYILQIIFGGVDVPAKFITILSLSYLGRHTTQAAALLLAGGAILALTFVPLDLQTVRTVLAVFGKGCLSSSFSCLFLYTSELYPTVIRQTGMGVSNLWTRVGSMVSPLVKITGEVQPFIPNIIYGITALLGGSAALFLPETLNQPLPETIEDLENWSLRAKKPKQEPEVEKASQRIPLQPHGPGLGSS
The assay is described as follows: Inhibition of OAT-mediated fluorescein uptake in ciPTEC-OAT3. As to the method:
(§1) All chemicals were obtained from Sigma, unless stated otherwise. Uptake was stopped by washing three times with ice-cold HBSS (4°C).
(§2) Non-linear regression with variable slope constraining the top to 100% was used to fit the data after background subtraction with GraphPad Prism. Statistics was performed by two-way ANOVA (two-tailed, α = 0.05) using GraphPad Prism as well. All data is presented as mean ± SEM of at least three separate experiments (n = 3) performed in triplicate, unless stated otherwise.

The target of assay [2] is T1, OAT3. Particulars: read-out: IC50 (literature); substrate estrone sulfate, S2-OAT3; cited from earlier work.
The target in assay [3] is T2, OAT1 (Homo sapiens, UniProt Q4U2R8).
T2 sequence (Q4U2R8 1-563): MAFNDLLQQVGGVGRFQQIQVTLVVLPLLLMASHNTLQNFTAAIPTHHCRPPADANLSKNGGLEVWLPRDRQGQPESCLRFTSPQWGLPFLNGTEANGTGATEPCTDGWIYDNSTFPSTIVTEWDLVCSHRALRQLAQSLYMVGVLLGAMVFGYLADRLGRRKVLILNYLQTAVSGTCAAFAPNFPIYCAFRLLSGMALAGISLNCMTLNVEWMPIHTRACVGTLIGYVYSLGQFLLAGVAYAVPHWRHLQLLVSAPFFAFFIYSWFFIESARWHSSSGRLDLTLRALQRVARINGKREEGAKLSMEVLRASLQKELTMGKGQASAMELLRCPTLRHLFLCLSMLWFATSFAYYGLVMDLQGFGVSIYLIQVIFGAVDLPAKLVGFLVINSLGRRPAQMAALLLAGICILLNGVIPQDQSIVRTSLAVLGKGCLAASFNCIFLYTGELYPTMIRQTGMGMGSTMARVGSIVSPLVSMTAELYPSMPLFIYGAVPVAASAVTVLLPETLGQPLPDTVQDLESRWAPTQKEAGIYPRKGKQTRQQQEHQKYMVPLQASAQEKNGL
The assay is described as follows: Inhibition of OAT-mediated fluorescein uptake in ciPTEC-OAT1. Details: host or cells: ciPTEC (human conditionally immortalized proximal tubule epithelial cells), lentiviral transduction. Type of assay: cell-based. As to the method: as §1, §2

The target of assay [4] is T2, OAT1. Set-up: host or cells: ciPTEC (human conditionally immortalized proximal tubule epithelial cells), lentiviral transduction. Particulars: substrate PAH, S2-OAT1; read-out: IC50 (literature); cited from earlier work.
For assay [5], the target named is T1, OAT3. Details: host or cells: ciPTEC (human conditionally immortalized proximal tubule epithelial cells), lentiviral transduction; method as in PMID 17314201. The following applies: substrate sitagliptin, CHO-OAT3; read-out: IC50 (literature); cited from earlier work.

Like-named read-outs stand apart in the source and are kept apart here.

Turning to `NS(=O)(=O)c1cc(C(=O)O)c(NCc2ccco2)cc1Cl` [Furosemide, furosemide], the IC50 on OAT3 [1] is 2.3 ± 0.4 µM; on OAT3 [2] it was 7.31 µM; on OAT1 [3] it was 25 ± 4 µM; at OAT1 [4] it was 18 µM; on OAT3 [5], 1.7 µM.
